{
  "source": "paper PMC10741027",
  "about": "“Risk Assessment of Psychotropic Drugs on Mitochondrial Function Using In Vitro Assays” (Biomedicines, 2023)",
  "note": "Some results come without the dose or concentration used.",
  "data": [
    {"tested_on": "HepG2 cells", "assay": "Glu/Gal assay: cellular ATP (CellTiter-Glo) after 24 h in glucose or galactose media", "settings": "Glu/Gal AC50 ratio", "values": [
      {"smiles": "CN(C)CCCN1c2ccccc2Sc2ccc(Cl)cc21", "note": "[Chlorpromazine]", "AC50 Fold Change": 0.941},
      {"smiles": "CN1CCN(C2=Nc3cc(Cl)ccc3Nc3ccccc32)CC1", "note": "[Clozapine]", "AC50 Fold Change": 0.933},
      {"smiles": "COC(=O)[C@H]1[C@H]2C[C@@H]3c4[nH]c5cc(OC)ccc5c4CCN3C[C@H]2C[C@@H](OC(=O)c2cc(OC)c(OC)c(OC)c2)[C@@H]1OC", "note": "[Reserpine]", "AC50 Fold Change": 0.619},
      {"smiles": "C=C(C)[C@H]1Cc2c(ccc3c2O[C@@H]2COc4cc(OC)c(OC)cc4[C@@H]2C3=O)O1", "note": "[Rotenone]", "AC50 Fold Change": 4600},
      {"smiles": "CN1CCN(CCCN2c3ccccc3Sc3ccc(C(F)(F)F)cc32)CC1", "note": "[Trifluoperazine]", "AC50 Fold Change": 0.885}
    ]}
  ]
}
